# About 22,000 (6.9%) of roughly 320,000 compounds were called active. Inconclusive results, whose numbers are uncertain, are shown with a selection of clear calls. Calls follow the shape of the dose curve; as a rule, active = well fitted inhibition curve with a large enough effect; inconclusive = small, poorly fitted or top-dose-only effect, or another doubt; inactive = no such curve, though single readings can be large or run the other way. Potencies of inconclusive entries are doubtful fits and often do not repeat.
# Test: Primary qHTS for delayed death inhibitors of the malarial parasite plastid, 96 hour incubation
# Details: P. falciparum luciferase reporter growth; series mostly up to 28.7 µM; activity change, negative = inhibition: at the top concentration
# How it was run: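 Readout is luminescence from an integrated firefly luciferase in P. falciparum. Red cells, 2% hematocrit and 0.05% parasitemia final, were cultured with compound through two parasite generations (96 hours) at 37 C, 5% CO2.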
# % is scaled to controls: 0 for no effect and ±100 for the full control effect; potency is read from the fitted curve at half-maximal effect.
SMILES,Potency,"activity change, negative = inhibition"
CCOC(=O)CCc1c(C)c(C#N)c2nc3ccccc3n2c1-n1ccnc1C,"inconclusive: 10.4 µM [inhibitor, single point]",–
CCOC(=O)CN(C(=O)COc1nc(-c2ccccc2)cc(C)c1C#N)c1ccc(F)cc1,"inconclusive: 18.5 µM [inhibitor, single point]",–
CCOc1ccccc1OCC(=O)Nc1cc(S(=O)(=O)N2CCCCC2)ccc1OC,–,inactive: 2.17%
COc1ccccc1OC(C)C(=O)Nc1ccc(S(=O)(=O)N2CCN(C)CC2)cc1 (centres undefined),–,inactive: -23.1%
CCCCC(=O)NNC(=S)NCc1ccccc1,–,inactive: 18.1%
O=C(CSc1nnc(-c2cccs2)n1-c1ccccc1)N1CCN(C(=O)c2ccco2)CC1,"inconclusive: 13.1 µM [inhibitor, single point]",–
O=C(NCC1CCCO1)c1nc2c(nnn2Cc2ccccc2Cl)c(=O)[nH]1 (centres undefined),active: 13.1 µM,–
Cc1cc(C)nc(SCc2nnc(SCC(=O)NCc3ccco3)n2-c2ccccc2)n1,"inconclusive: 0.657 µM [inhibitor, full curve, poor fit]",–
Cn1c(=O)n(CCc2ccccc2)c2ccccc21,–,inactive: -1.43%
Cc1c(NC(=O)C(C)OC(=O)c2cc(Cl)ccc2O)c(=O)n(-c2ccccc2)n1C (centres undefined),"inconclusive: 2.62 µM [inhibitor, partial curve, poor fit]",–
Cc1ccccc1OCCC(=O)Nc1ccc(S(=O)(=O)N(C)C2CCN(C)CC2)cc1,active: 3.7 µM,–
CCOc1ccc(NC(=O)CN(C)S(=O)(=O)c2cnc[nH]2)cc1,"inconclusive: 9.28 µM [inhibitor, partial curve, poor fit]",–
CCC1CCCCN1C(=O)COC(=O)c1cc(C)nc2ccccc12 (centres undefined),"inconclusive: 10.4 µM [inhibitor, partial curve, poor fit]",–
O=C(COc1ccccc1[N+](=O)[O-])N/N=C/c1ccc(O)c([N+](=O)[O-])c1,"inconclusive: 9.28 µM [inhibitor, single point]",–
COc1ccc(/C=N\NC(=O)c2ccc(F)cc2)cc1COc1ccccc1C(N)=O,"inconclusive: 3.7 µM [inhibitor, full curve, poor fit]",–
COc1cc(/C=N/NC(=O)c2cc(O)cc(O)c2)ccc1OC(=O)c1ccccc1,"inconclusive: 2.62 µM [inhibitor, full curve, poor fit]",–
CSc1nc2c(c(=O)[nH]c(=O)n2C)n1Cc1ccccc1Cl,active: 5.22 µM,–
NC(=O)Cn1cc(C(=O)c2ccccc2)c2ccccc21,"inconclusive: 14.7 µM [inhibitor, single point]",–
Cc1nnc(NC(=O)C2CC(=O)N(Cc3ccccc3)C2)s1 (centres undefined),"inconclusive: 18.5 µM [inhibitor, single point]",–
CCn1c(C)cc(C=C2C(=O)c3ccccc3C2=O)c1C,–,inactive: 5.15%
O=C1/C(=C/c2ccco2)SC(=S)N1C1CCS(=O)(=O)C1 (centres undefined),–,inactive: 77.3%
Cc1cccc(-c2nn(-c3ccccc3)cc2C(=O)NCC(c2cccs2)N2CCOCC2)c1 (centres undefined),"inconclusive: 18.5 µM [inhibitor, single point]",–

SMILES,Potency,"activity change, negative = inhibition"
CSc1nc2nc(-c3ccc(F)cc3)c(CCN3CCN(C)CC3)cn2n1,"inconclusive: 10.4 µM [inhibitor, partial curve, poor fit]",–
CCOC(=O)[C@H]1[C@H]2COc3ccc(Cl)cc3[C@@H]2N2C(=O)c3cc(OC)ccc3NC(=O)[C@@]12C,"inconclusive: 16.5 µM [inhibitor, single point]",–
O=C(NC1CCCCCCC1)c1ccc(CNc2c(N3CCOCC3)c(=O)c2=O)cc1,"inconclusive: 18.5 µM [inhibitor, single point]",–
COc1ccc(OC)c(CN2CCN(C(=O)c3ccc(F)cc3)CC2)c1,"inconclusive: 13.1 µM [inhibitor, single point]",–
COC(=O)c1cn(Nc2ncc(C(F)(F)F)cc2Cl)c(=O)c2ccccc12,"inconclusive: 8.28 µM [inhibitor, partial curve, poor fit]",–
Cc1[nH]c2ccccc2c1C(=O)NS(=O)(=O)Nc1ccc(Cl)cc1,"inconclusive: 0.928 µM [inhibitor, partial curve, poor fit]",–
CCCOc1cccc(-c2nnc(NC(=O)c3ccco3)s2)c1,"inconclusive: 18.5 µM [inhibitor, single point]",–
CCOC(=O)Cn1c(=O)n(Cc2ccc(C)cc2)c(=O)c2cccnc21,"inconclusive: 13.1 µM [inhibitor, single point]",–
O=C(Nc1ccc(F)cc1)c1ccc(CSc2ccccc2)o1,"inconclusive: 18.5 µM [inhibitor, single point]",–
COc1ccc(S(=O)(=O)Nc2nc3c(s2)CCCC3)cc1,"inconclusive: 1.31 µM [inhibitor, partial curve, poor fit]",–
COc1cccc(NC(=O)CN(C)C(=O)C(C)Sc2ccccc2)c1 (centres undefined),–,inactive: -7.77%
C=CCn1c(SC(C)C(=O)NCCC2=CCCCC2)nc2ccccc2c1=O (centres undefined),active: 13.1 µM,–
CCN(CC)CCCNC(=O)C1c2cc(OC)c(OC)cc2C(=O)N(C)C1c1cccnc1 (centres undefined),"inconclusive: 18.5 µM [inhibitor, single point]",–
C=CCNS(=O)(=O)c1ccc(OCC(=O)OC)cc1,–,inactive: 5.64%
Cc1ccccc1NC(=O)Cc1nc(COC(=O)c2cccnc2Cl)cs1,"inconclusive: 11.7 µM [inhibitor, single point]",–
Nc1ccc(S(=O)(=O)c2ccccc2)nc1,–,inactive: 7.34%
Fc1ccc(CSc2nnc3ccccn23)c(Cl)c1,–,inactive: 39.1%
CC1(C)Cc2cccc(OCC(=O)N3CCN(c4ccccc4F)CC3)c2O1,"inconclusive: 16.5 µM [inhibitor, partial curve, poor fit]",–
O=C(CN1C(=O)COc2ccccc21)NCCCN1CCCC1,"inconclusive: 0.0083 µM [inhibitor, full curve, poor fit]",–
CCC(C)(CC(=O)O)CC(=O)Nc1cc(C(F)(F)F)cc(C(F)(F)F)c1 (centres undefined),–,inactive: -1.82%
COc1ccccc1C(=O)NCCC(=O)NCC(c1ccccc1)N(C)C (centres undefined),–,inactive: -19.8%
CCOC(=O)NC(NC(=S)Nc1ccccc1OC)C(Cl)(Cl)Cl (centres undefined),"inconclusive: 11.7 µM [inhibitor, single point]",–

# Some of the entries so far, with bars between the fields:
SMILES | Potency | activity change, negative = inhibition
C=CCn1c(SC(C)C(=O)NCCC2=CCCCC2)nc2ccccc2c1=O (centres undefined) | active: 13.1 µM | –
CCN(CC)CCCNC(=O)C1c2cc(OC)c(OC)cc2C(=O)N(C)C1c1cccnc1 (centres undefined) | inconclusive: 18.5 µM [inhibitor, single point] | –
C=CCNS(=O)(=O)c1ccc(OCC(=O)OC)cc1 | – | inactive: 5.64%
Cc1ccccc1NC(=O)Cc1nc(COC(=O)c2cccnc2Cl)cs1 | inconclusive: 11.7 µM [inhibitor, single point] | –
Nc1ccc(S(=O)(=O)c2ccccc2)nc1 | – | inactive: 7.34%
Fc1ccc(CSc2nnc3ccccn23)c(Cl)c1 | – | inactive: 39.1%
CC1(C)Cc2cccc(OCC(=O)N3CCN(c4ccccc4F)CC3)c2O1 | inconclusive: 16.5 µM [inhibitor, partial curve, poor fit] | –
O=C(CN1C(=O)COc2ccccc21)NCCCN1CCCC1 | inconclusive: 0.0083 µM [inhibitor, full curve, poor fit] | –
CCC(C)(CC(=O)O)CC(=O)Nc1cc(C(F)(F)F)cc(C(F)(F)F)c1 (centres undefined) | – | inactive: -1.82%
COc1ccccc1C(=O)NCCC(=O)NCC(c1ccccc1)N(C)C (centres undefined) | – | inactive: -19.8%
CCOC(=O)NC(NC(=S)Nc1ccccc1OC)C(Cl)(Cl)Cl (centres undefined) | inconclusive: 11.7 µM [inhibitor, single point] | –
